## Library screening results

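Assay on Mycobacterium tuberculosis, filed only as a heat shock assay from Cornell; the read-out is not stated. The concentration is filed as 10 mM, unlikely as a test dose, so the dose is not known. Higher reads as stronger inhibition (inferred: compounds with an IC50 in retests scored well above the rest). Of about 69,000 compounds tested this way, about 930 (1.4%) reached 50% or more in at least one test.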

Each number is a percent effect as filed. The record does not define 0% and 100%; most values in the screen are far below 50% and negative numbers occur (in some assays of this library far below -100). This is an unselected part of the compounds tested.

C[C@H](NC(=O)c1cccc(CCC(C)(C)O)c1)C(N)=O gave 5.973%.
Cc1ccc(S(=O)(=O)NC(=O)c2cccc(OCC(N)=O)c2)s1 gave 26.53%.
CCCc1ncc(C(=O)c2ccc(OC)cc2)n1C gave -10.6%.
COCCC(=O)N1CCCC(CCC(=O)Nc2ccc(Cl)cc2)C1 (centres unmarked) gave 10.71%.
Nc1nc(N2CCCCC2)ncc1C(=O)NCc1ccc(F)c(Cl)c1 gave 4.228%.
COc1ccccc1OCC(=O)NS(=O)(=O)c1ccc(Cl)cc1F gave 3.256%.
O=C(O)C(F)(F)F.[H][C@@]12CCN(Cc3cc(C)on3)C[C@]1([H])O[C@@H](C(=O)N1CCC(C)CC1)C2 gave -0.569%.
Cc1ccc(CN2Cc3ccccc3O[C@]3(CC[C@H](CO)CC3)C2)s1.Cl gave -7.456%.
CN(Cc1ccc(C(N)=O)cc1)c1ccc(C(F)(F)F)cn1 gave -5.188%.
[H][C@]12CCN[C@@]1([H])CN(C(=O)CC1CC1)C2 gave 11.74%.
O=C1NC(c2cnc(C3CCC3)s2)Nc2ncccc21 (centres unmarked) gave -10.76%.
CC(C)[C@H]1CN(Cc2c[nH]nn2)C[C@@H]1NC(=O)C1CCOCC1 gave -6.482%.
CN(C)C(=O)C1CCCN1c1ncnc2ccsc12 (centres unmarked) gave -29.5%.
OC(CNCCn1cccn1)c1ccc(F)c(F)c1 (centres unmarked) gave -2.697%.
Cc1nn(C)cc1CCC(=O)N1CCCC(n2cncn2)C1 (centres unmarked) gave 0.1738%.
COCc1nc(C(=O)NS(=O)(=O)c2ccc(OC)c(C)c2)cs1 gave 18.94%.
O=C1CCC2(CCN(Cc3cscn3)CC2)CN1[C@H]1CC[C@H](O)CC1 gave 1.111%.
COc1ccc(C2CC(=O)Oc3cc(C)[nH]c(=O)c32)cc1 (centres unmarked) gave -8.949%.
Cc1cc(N2CCN(c3ccc(=O)[nH]n3)CC2)nc(-c2ccncc2)n1 gave -4.369%.
[H][C@@]12CCN(C(=O)c3cccn3C)C[C@@]1([H])O[C@@H](c1nc(C)no1)C2 gave 1.857%.
CCOc1cccc(CNc2cnn(CC(C)C)c2CC)c1 gave 2.18%.
CC(C)NS(=O)(=O)c1cc(C(=O)O)cc(-c2ccc3c(c2)OCO3)c1 gave -24.41%.
Cc1occc1C(=O)N1CCCC1c1ccc(C(=O)N2CCOCC2)s1 (centres unmarked) gave 4.741%.
CC(C)(C)C(O)CN1CCN(C(=O)c2cccc3ncccc23)CC1 (centres unmarked) gave 22.85%.
Cc1cnn(CC2CCCCN2C(=O)Cc2csc(C)n2)c1 (centres unmarked) gave -9.232%.
CC(C)CNC(=O)N1CCC2(CCCO2)C1 (centres unmarked) gave -6.724%.
CCC1CCCN(C(=O)Cc2csc(-c3ncccn3)n2)C1 (centres unmarked) gave -7.582%.
Cc1ccc(CN2Cc3nnn(C)c3C(COCC(=O)N(C)C)C2)s1.O=C(O)C(F)(F)F (centres unmarked) gave -39.87%.
Cc1nc(N)cc(N2CCCC(COc3cccc(F)c3)C2)n1 (centres unmarked) gave 95.51%.
Cc1nc(NCc2ccccc2)cc(C(C)Cn2nc(C)c(C)c2C)n1 (centres unmarked) gave 7.904%.
CC(C)(C)c1cnc(CN2CCCCC2Cn2cccn2)o1 (centres unmarked) gave -26.15%.
O=C(O)C(F)(F)F.O=C(O)C(F)(F)F.O=C(O)c1cc2c(nc1-c1cncnc1)CCN(C1CCOC1)CC2 (centres unmarked) gave -4.97%.
CC(c1nc(C2CC2)no1)N(C)Cc1ccc(C#N)cc1 (centres unmarked) gave 9.283%.
COc1cccc(CN(C)Cc2nc(C(C)C)no2)c1 gave 3.668%.
O=C(O)C(F)(F)F.O=C(O)C(F)(F)F.O=C(O)C(F)(F)F.O=C(O)C(F)(F)F.[H][C@]12CC(Cn3cccn3)N(C)[C@@]1([H])CCN(Cc1cccnc1)C2 (some centres unmarked) gave -19.91%.
COC1CCN(C(=O)c2nn(-c3ccc(C(C)C)cc3)cc2O)CC1 gave 45.52%.
CCc1noc(CN2CCN(CCO)CC2)n1 gave 9.747%.
COCC(=O)N1CCC(c2cc(C(F)(F)F)c3c(C)noc3n2)CC1 gave -15.84%.
O=C(O)C1(Cc2cc(-c3ccccc3F)no2)CCOCC1 gave -5.581%.
CC(C)c1noc(CCC(=O)NCC2CCC(C(N)=O)CC2)n1 (centres unmarked) gave -0.4286%.
COCc1cccc(CNCc2c(C(C)C)nn(C)c2N(C)C)c1 gave 18.81%.
O=C(CN1CCC(C(=O)c2cc(F)ccc2F)CC1)NC1CC1 gave -12.48%.
Cn1ccc(CN2CCC(COC3CCCC3)CC2)cc1=O gave 2.205%.
COC(=O)c1cc(OCC2CCC2)cc(C(=O)N[C@H](C)C(N)=O)c1 gave -9.217%.
CCc1cc(N(C)CCCO)n2nccc2n1 gave 19.43%.
CC(=O)N1CCC(N[C@@H]2CO[C@H](CNC(=O)C3CCCC3)[C@H]2O)CC1 gave -0.8624%.
CC1Cc2ccccc2N1C(=O)Cn1nc(-c2cccs2)ccc1=O (centres unmarked) gave -3.275%.
Cc1cccc(C2(NC(=O)CCN3C(=O)CCC3=O)CCCC2)c1 gave -9.048%.
Cc1ccsc1C(=O)N1CCc2ncc(CN3CCCC3)n2CC1.O=C(O)C(F)(F)F gave -4.809%.
O=C1NCCCN1Cc1nc(-c2ccc(N3CCCCC3)cc2)no1 gave 6.091%.
O=C(CSc1nc2c(cnn2CCO)c(=O)[nH]1)NC1CCCCC1 gave 11.78%.
CCCOCC1CCN(C(=O)Cn2cccc(C(F)(F)F)c2=O)C1 (centres unmarked) gave -8.567%.
CC(=O)N1CCCC(C(=O)NCCc2nc(Cc3ccccc3)no2)C1 (centres unmarked) gave 11.78%.
CCOC(=O)C1CCN(c2cc(C(=O)N3CCCCC3)nc(C)n2)CC1 gave 5.715%.
Cc1occc(=O)c1OCc1noc(C(=O)NCC(C)C)n1 gave -2.953%.
Cc1ncsc1-c1nnc(C2CCN(Cc3ccccc3)CC2)o1 gave 39.9%.

Repeated from the top, 3 entries:

{"smiles": "C[C@H](NC(=O)c1cccc(CCC(C)(C)O)c1)C(N)=O", "percent effect": 5.973}
{"smiles": "Cc1ccc(S(=O)(=O)NC(=O)c2cccc(OCC(N)=O)c2)s1", "percent effect": 26.53}
{"smiles": "CCCc1ncc(C(=O)c2ccc(OC)cc2)n1C", "percent effect": -10.6}

Measurements from “University of Dundee, Small-Polar-MMV Screening Library” (2021), ChEMBL document CHEMBL3988442.